According to patent publication US20110053945A1, “SALTS OF 6-(5-CHLORO-2-PYRIDYL)-5-[(4-METHYL-1-PIPERAZINYL)CARBONYLOXY]-7-OXO-6,7-DIHY-DRO-5H-PYRROLO[3,4-B]PYRAZINE” (SEPRACOR INC., priority 2007, published 2011):

Assay: Open-label taste assessment (Flavor Profile) for bitterness in healthy human subjects
Format: in vivo
Conditions: scale 0-3
[1] = 0.01 mg/5 mL in water, aftertaste t = 1 (minutes)
[2] = 0.01 mg/5 mL in water, aftertaste t = 3 (minutes)
[3] = 0.01 mg/5 mL in water, aftertaste t = 5 (minutes)
[4] = 0.01 mg/5 mL in water, aftertaste t = 10 (minutes)
[5] = 0.01 mg/5 mL in water, aftertaste t = 15 (minutes)
[6] = 0.01 mg/5 mL in water, aftertaste t = 20 (minutes)
[7] = 0.01 mg/5 mL in water, aftertaste t = 25 (minutes)
[8] = 0.01 mg/5 mL in water, aftertaste t = 30 (minutes)
[9] = 0.01 mg/5 mL in water, t = 0 (initial)
[10] = 1.0 mg/5 mL in water, aftertaste t = 1 (minutes)
[11] = 1.0 mg/5 mL in water, aftertaste t = 3 (minutes)
[12] = 1.0 mg/5 mL in water, aftertaste t = 5 (minutes)
[13] = 1.0 mg/5 mL in water, aftertaste t = 10 (minutes)
[14] = 1.0 mg/5 mL in water, aftertaste t = 15 (minutes)
[15] = 1.0 mg/5 mL in water, aftertaste t = 20 (minutes)
[16] = 1.0 mg/5 mL in water, aftertaste t = 25 (minutes)
[17] = 1.0 mg/5 mL in water, aftertaste t = 30 (minutes)
[18] = 1.0 mg/5 mL in water, t = 0 (initial)

SMILES | Human taste bitterness intensity [1] | Human taste bitterness intensity [2] | Human taste bitterness intensity [3] | Human taste bitterness intensity [4] | Human taste bitterness intensity [5] | Human taste bitterness intensity [6] | Human taste bitterness intensity [7] | Human taste bitterness intensity [8] | Human taste bitterness intensity [9] | Human taste bitterness intensity [10] | Human taste bitterness intensity [11] | Human taste bitterness intensity [12] | Human taste bitterness intensity [13] | Human taste bitterness intensity [14] | Human taste bitterness intensity [15] | Human taste bitterness intensity [16] | Human taste bitterness intensity [17] | Human taste bitterness intensity [18]
CN1CCN(C(=O)O[C@H]2c3nccnc3C(=O)N2c2ccc(Cl)cn2)CC1 [D-Malate, (S)-Zopiclone D-Malate] | 1.5 | 1.0 | 0.7 | 0.4 | 0.3 | 0.1 | 0 | 0 | 1.1 | 2.9 | 2.8 | 2.6 | 2.3 | 2.1 | 1.9 | 1.8 | 1.6 | 3.0
CN1CCN(C(=O)OC2c3nccnc3C(=O)N2c2ccc(Cl)cn2)CC1 (stereo in doubt) [(R)-Mandelate, (S)-Zopiclone (R)-Mandelate] | 2.0 | 1.8 | 1.5 | 1.1 | 0.9 | 0.5 | 0.3 | 0.3 | 1.8 | 2.9 | 2.6 | 2.4 | 2.1 | 1.9 | 1.9 | 1.7 | 1.7 | 2.8
CN1CCN(C(=O)O[C@H]2c3nccnc3C(=O)N2c2ccc(Cl)cn2)CC1 [Free base, (S)-(6-(5-chloro-2-pyridyl)-5-[(4-methyl-1-piperazinyl)carbonyloxy]-7-oxo-6,7-dihydro-5H-pyrrolo[3,4-b]pyrazine), reference compound] | 1.7 | 1.7 | 1.5 | 1.3 | 1.1 | 0.9 | 0.6 | 0.4 | 1.6 | 2.8 | 2.6 | 2.4 | 2.2 | 2.0 | 1.8 | 1.5 | 1.4 | 2.7
CN1CCN(C(=O)O[C@H]2c3nccnc3C(=O)N2c2ccc(Cl)cn2)CC1 [Mesylate, (S)-Zopiclone Mesylate] | 1.6 | 1.6 | 1.3 | 0.9 | 0.7 | 0.6 | 0.4 | 0.3 | 1.4 | 2.4 | 2.5 | 2.1 | 1.9 | 1.6 | 1.5 | 1.4 | 1.3 | 2.6

Where a name gives a salt, the structure may show the parent alone.
